In publication PMC3515540:
Results are given in words; binding and its absence hold for the method and conditions named. Each block holds one binder with its values, some of them ahead of it.

By UniProt entry, the sequences of proteins in these tests, tags left out. Where a name states a change or a piece, a line headed by the entry shows the natural chain unless it says otherwise.
UniProt P25491: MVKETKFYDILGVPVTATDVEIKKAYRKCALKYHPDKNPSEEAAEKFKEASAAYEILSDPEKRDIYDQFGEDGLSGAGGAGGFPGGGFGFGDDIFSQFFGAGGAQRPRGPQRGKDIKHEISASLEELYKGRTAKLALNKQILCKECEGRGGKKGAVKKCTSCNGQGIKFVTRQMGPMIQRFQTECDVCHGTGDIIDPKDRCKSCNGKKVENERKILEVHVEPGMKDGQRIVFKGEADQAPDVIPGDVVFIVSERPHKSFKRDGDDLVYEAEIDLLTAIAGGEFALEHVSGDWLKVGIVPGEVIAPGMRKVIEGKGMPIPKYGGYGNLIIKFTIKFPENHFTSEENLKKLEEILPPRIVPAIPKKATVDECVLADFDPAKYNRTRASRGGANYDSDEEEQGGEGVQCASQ

Tests used:
[1] = target: wild-type Sis1 (yeast) (UniProt P25294); assay: AUC; sedimentation velocity, 250–750 µg/mL protein, 40,000 rpm, 20°C, buffer A with 4 M urea; both purified
[2] = target: wild-type Sis1 (yeast) (UniProt P25294); assay: SEC-MALLS; Superdex 200 10/300 GL, buffer A with 4 M urea, 50–75 µM protein, incubated 1 h at room temperature; both purified
[3] = target: SYS (Sis1_(1–121)-Ydj1_(101–255)-Sis1_(258–352)) (yeast) (UniProt P25294+P25491); assay: as above
[4] = target: Sis1_Δ_(124–174) (yeast) (UniProt P25294); assay: as above
[5] = target: Sis1_Δ_(121–257) (yeast) (UniProt P25294); assay: as above

binding [1]: no binding (condition: in 4 M urea)
binding [2]: no binding (condition: in 4 M urea)
B1: wild-type Sis1 (protein, UniProt P25294 1-352)
chain: MVKETKLYDLLGVSPSANEQELKKGYRKAALKYHPDKPTGDTEKFKEISEAFEILNDPQKREIYDQYGLEAARSGGPSFGPGGPGGAGGAGGFPGGAGGFSGGHAFSNEDAFNIFSQFFGGSSPFGGADDSGFSFSSYPSGGGAGMGGMPGGMGGMHGGMGGMPGGFRSASSSPTYPEEETVQVNLPVSLEDLFVGKKKSFKIGRKGPHGASEKTQIDIQLKPGWKAGTKITYKNQGDYNPQTGRRKTLQFVIQEKSHPNFKRDGDDLIYTLPLSFKESLLGFSKTIQTIDGRTLPLSRVQPVQPSQTSTYPGQGMPTPKNPSQRGNLIVKYKVDYPISLNDAQKRAIDENF

binding [3]: no binding (condition: in 4 M urea)
B2: SYS (Sis1_(1–121)-Ydj1_(101–255)-Sis1_(258–352)) (protein, UniProt P25294 1-121; P25491 101-255; P25294 258-352)
chain: MVKETKLYDLLGVSPSANEQELKKGYRKAALKYHPDKPTGDTEKFKEISEAFEILNDPQKREIYDQYGLEAARSGGPSFGPGGPGGAGGAGGFPGGAGGFSGGHAFSNEDAFNIFSQFFGGAGGAQRPRGPQRGKDIKHEISASLEELYKGRTAKLALNKQILCKECEGRGGKKGAVKKCTSCNGQGIKFVTRQMGPMIQRFQTECDVCHGTGDIIDPKDRCKSCNGKKVENERKILEVHVEPGMKDGQRIVFKGEADQAPDVIPGDVVFIVSERPHPNFKRDGDDLIYTLPLSFKESLLGFSKTIQTIDGRTLPLSRVQPVQPSQTSTYPGQGMPTPKNPSQRGNLIVKYKVDYPISLNDAQKRAIDENF

binding [4]: no binding (condition: in 4 M urea)
B3: Sis1_Δ_(124–174) (protein, UniProt P25294)
chain: MVKETKLYDLLGVSPSANEQELKKGYRKAALKYHPDKPTGDTEKFKEISEAFEILNDPQKREIYDQYGLEAARSGGPSFGPGGPGGAGGAGGFPGGAGGFSGGHAFSNEDAFNIFSQFFGGSSTYPEEETVQVNLPVSLEDLFVGKKKSFKIGRKGPHGASEKTQIDIQLKPGWKAGTKITYKNQGDYNPQTGRRKTLQFVIQEKSHPNFKRDGDDLIYTLPLSFKESLLGFSKTIQTIDGRTLPLSRVQPVQPSQTSTYPGQGMPTPKNPSQRGNLIVKYKVDYPISLNDAQKRAIDENF

binding [5]: no binding (condition: in 4 M urea)
B4: Sis1_Δ_(121–257) (protein, UniProt P25294)
chain: MVKETKLYDLLGVSPSANEQELKKGYRKAALKYHPDKPTGDTEKFKEISEAFEILNDPQKREIYDQYGLEAARSGGPSFGPGGPGGAGGAGGFPGGAGGFSGGHAFSNEDAFNIFSQFFGHPNFKRDGDDLIYTLPLSFKESLLGFSKTIQTIDGRTLPLSRVQPVQPSQTSTYPGQGMPTPKNPSQRGNLIVKYKVDYPISLNDAQKRAIDENF
